For this data set, the target named is T1, JAVL (JAVL_A) (UniProt A0A1U8LLK1).
T1 sequence (looked up, limits assumed): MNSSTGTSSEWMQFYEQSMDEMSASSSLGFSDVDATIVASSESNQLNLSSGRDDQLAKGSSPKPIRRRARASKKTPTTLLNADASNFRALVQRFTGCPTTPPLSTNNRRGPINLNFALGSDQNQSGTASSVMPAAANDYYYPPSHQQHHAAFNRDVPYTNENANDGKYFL
Description: competition with a labelled probe. To be noted: EMSA: 30 °C for 30 min, then 5% native PAGE in Tris/borate/EDTA, 10 V/cm, 4 °C, 10x and 100x cold competitor, binding buffer, salt and pH not stated, recombinant protein, protein details: His (pET32a), label: unlabeled. On the technique in general: Mobility shift assays separate free from complexed probe on a gel.

A negative result means that nothing was seen under these conditions. At least one verdict was read from the data and is not stated in words by the source. Protein sequences can lack the tags named with them.

For the sequence “AACAGGAGATTTCACATGTATAATGATGTCAA (double strand) [GoPGF promoter mutant probe]”, for the setting “unlabeled mutant competitor against N5”, the binding result is listed as “no binding”.
With “TTATGGCTGTAAACCATGTCGAATTCATGGAG (double strand) [AOS promoter mutant probe]”, the binding result (unlabeled mutant competitor against N3) was “no binding”.

For the origin of these results see paper PMC11321651, “Regulation of Glandular Size and Phytoalexin Biosynthesis by a Negative Feedback Loop in Cotton”.
